Test results: the supplement of paper PMC10331698
± gives the standard deviation of the averaged measurements. Most entries show no effect beyond the scatter of the controls.

Key:
Experiment in all cases: level (log10 ratio to DMSO vehicle control); higher = higher biomarker level / cell amount than vehicle control
[1] = compound: OCC(F)(F)C(F)(F)C(F)(F)C(F)(F)C(F)(F)C(F)F [1H,1H,7H-Dodecafluoro-1-heptanol]; conditions: 2200 nM; in DMSO
Protocol: (§1)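 BioMAP Diversity Plus panel of 12 human primary cell co-culture systems (3C, 4H, LPS, SAg, BT, BF4T, BE3C, CASM3C, HDF3CGF, KF3CT, MyoF, Mphg). Compounds were added 1 h before stimulation and left for 24 h (MyoF 48 h; BT 72 h for soluble read-outs or 6 d for IgG). Biomarkers were read by ELISA, cytotoxicity by SRB, PBMC viability and proliferation by Alamar Blue. Each well value was divided by the mean of 8 DMSO control wells on the same plate and log10 transformed; duplicate blinded samples were tested at 4 concentrations.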

[2] = compound: O=S(=O)(OCC(F)(F)F)C(F)(F)C(F)(F)C(F)(F)C(F)(F)F [2,2,2-Trifluoroethyl perfluorobutanesulfonate]; conditions: 2200 nM; in DMSO
Protocol: as §1

[3] = compound: O=P(O)(O)CCC(F)(F)C(F)(F)C(F)(F)C(F)(F)C(F)(F)C(F)(F)F [2-(Perfluorohexyl)ethylphosphonic acid]; conditions: 2200 nM; in DMSO
Protocol: as §1

[4] = compound: NS(=O)(=O)C(F)(F)C(F)(F)C(F)(F)C(F)(F)C(F)(F)C(F)(F)C(F)(F)C(F)(F)F [Perfluorooctanesulfonamide]; conditions: in DMSO
Protocol: as §1

[5] = compound: C=C(C)C(=O)OCC(F)(F)C(F)(F)C(F)(F)C(F)(F)C(F)(F)C(F)(F)C(F)(F)F; conditions: in DMSO
Protocol: as §1

[6] = compound: OCCCCC(F)(F)C(F)(F)C(F)(F)C(F)(F)F [4:4 Fluorotelomer alcohol]; conditions: 2200 nM; in DMSO
Protocol: as §1

[7] = compound: COC(=O)C(F)(F)C(F)(F)OC(F)(C(F)(F)F)C(F)(F)OC(F)=C(F)F [Methyl perfluoro(3-(1-ethenyloxypropan-2-yloxy)propanoate)]; conditions: in DMSO
Protocol: as §1

[8] = compound: O=S(=O)(F)C(F)(F)C(F)(F)C(F)(F)C(F)(F)C(F)(F)C(F)(F)C(F)(F)C(F)(F)F [Perfluorooctanesulfonyl fluoride]; conditions: 2200 nM; in DMSO
Protocol: as §1

[9] = compound: FC(F)(F)C(F)(F)C(F)(F)CC1CO1 [1H,1H-Heptafluorobutyl epoxide]; conditions: 2200 nM; in DMSO
Protocol: as §1

[10] = compound: C=CC(F)(F)C(F)(F)C(F)(F)C(F)(F)C(F)(F)C(F)(F)C(F)(F)C(F)(F)C=C [1,8-Divinylperfluorooctane]; conditions: in DMSO
Protocol: as §1

[11] = compound: O=S(=O)(O)C(F)(F)C(F)(F)C(F)(F)C(F)(F)C(F)(F)C(F)(F)C(F)(F)C(F)(F)F [Perfluorooctanesulfonic acid]; conditions: 2200 nM; in DMSO
Protocol: as §1

[12] = compound: C=CC(=O)OCC(F)(F)C(F)(F)C(F)(F)C(F)(F)C(F)(F)C(F)(F)C(F)(F)F [1H,1H-Perfluorooctyl acrylate]; conditions: 2200 nM; in DMSO
Protocol: as §1

[13] = compound: CO[Si](C)(CCC(F)(F)C(F)(F)C(F)(F)C(F)(F)C(F)(F)C(F)(F)F)OC [Dimethoxymethyl((perfluorohexyl)ethyl)silane]; conditions: in DMSO
Protocol: as §1

[14] = compound: NC(=O)C(F)(F)C(F)(F)C(F)(F)C(F)F; conditions: in DMSO
Protocol: as §1

[15] = compound: FC(F)(F)C(F)(F)C(F)(F)CI [Heptafluorobutyl iodide]; conditions: 2200 nM; in DMSO
Protocol: as §1

[16] = compound: NC(=O)C(F)(F)C(F)(F)F [Pentafluoropropionamide]; conditions: 2200 nM; in DMSO
Protocol: as §1

[17] = compound: O=C(O)C(F)(F)C(F)(F)C(F)F [4H-Perfluorobutanoic acid]; conditions: in DMSO
Protocol: as §1

[18] = compound: O=S(=O)(O)C(F)(F)C(F)(F)C(F)(F)C(F)(F)C(F)(F)C(F)(F)C(F)(F)C(F)(F)F [Potassium perfluorooctanesulfonate]; conditions: 2200 nM; in DMSO
Protocol: as §1

Row | Test System | level (log10) [1] | level (log10) [2] | level (log10) [3] | level (log10) ([4]; 2200 nM) | level (log10) ([4]; 6700 nM) | level (log10) ([4]; 20000 nM) | level (log10) ([5]; 740 nM) | level (log10) ([5]; 2200 nM) | level (log10) [6] | level (log10) ([7]; 740 nM) | level (log10) ([7]; 2200 nM) | level (log10) [8] | level (log10) [9] | level (log10) ([10]; 740 nM) | level (log10) ([10]; 2200 nM) | level (log10) [11] | level (log10) [12] | level (log10) ([13]; 740 nM) | level (log10) ([13]; 2200 nM) | level (log10) ([14]; 2200 nM) | level (log10) ([14]; 6700 nM) | level (log10) ([14]; 20000 nM) | level (log10) ([14]; 60000 nM) | level (log10) [15] | level (log10) [16] | level (log10) ([17]; 2200 nM) | level (log10) ([17]; 6700 nM) | level (log10) ([17]; 20000 nM) | level (log10) ([17]; 60000 nM) | level (log10) [18]
1 | lMphg:CD106/VCAM-1 | -0.0245 ± 0.037 | -0.018 ± 0.0042 | -0.0085 ± 0.0021 | 0.0115 ± 0.033 | 0.006 ± 0.014 | 0.0365 ± 0.0021 | -0.03 ± 0.017 | -0.0285 ± 0.049 | -0.0035 ± 0.011 | -0.0115 ± 0.019 | 0.006 ± 0.0099 | -0.0125 ± 0.029 | -0.0015 ± 0.018 | -0.004 ± 0.038 | -0.011 ± 0.0028 | 0.011 ± 0.0057 | -0.0135 ± 0.005 | -0.0245 ± 0.028 | -0.0105 ± 0.016 | -0.01 ± 0.034 | 0 ± 0.013 | 0.006 ± 0.0014 | -0.003 ± 0.017 | -0.021 ± 0.025 | 0.0015 ± 0.022 | 0.0085 ± 0.0035 | 0.003 ± 0.0028 | 0.0125 ± 0.016 | 0.003 ± 0.014 | -0.003 ± 0.0071
2 | lMphg:CXCL8/IL-8 | -0.0085 ± 0.073 | 0.0285 ± 0.0035 | 0.01 ± 0.075 | 0.0195 ± 0.08 | 0.004 ± 0.0042 | 0.124 ± 0.019 | -0.001 ± 0.0042 | -0.0305 ± 0.033 | -0.0085 ± 0.083 | 0.045 ± 0.013 | 0.04 ± 0.017 | 0.0205 ± 0.036 | -0.002 ± 0.062 | 0.021 ± 0.044 | 0.0065 ± 0.0021 | 0.011 ± 0.075 | 0.0335 ± 0.0035 | 0.025 ± 0.035 | 0.0055 ± 0.015 | 0.0015 ± 0.074 | -0.0235 ± 0.0078 | -0.0225 ± 0.028 | 0.0185 ± 0.047 | 0.015 ± 0.016 | 0.0055 ± 0.0092 | 0.014 ± 0.031 | 0.024 ± 0.0028 | 0.0145 ± 0.0021 | 0.0315 ± 0.011 | 0.018 ± 0.068
3 | lMphg:IL-1alpha | 0.0165 ± 0.016 | 0.0095 ± 0.0035 | -0.016 ± 0.051 | 0.006 ± 0.044 | 0.053 ± 0.05 | 0.228 ± 0.028 | 0.0415 ± 0.028 | -0.024 ± 0.065 | 0.002 ± 0.0085 | 0.0305 ± 0.026 | 0.0415 ± 0.029 | -0.0005 ± 0.021 | 0.0015 ± 0.03 | 0.035 ± 0.069 | -0.028 ± 0.011 | -0.0255 ± 0.013 | 0.013 ± 0.03 | 0.006 ± 0.092 | -0.0275 ± 0.005 | 0.0345 ± 0.0078 | -0.0425 ± 0.023 | -0.0465 ± 0.00071 | 0.0365 ± 0.047 | 0.0135 ± 0.06 | 0.032 ± 0.078 | -0.035 ± 0.04 | -0.0055 ± 0.0064 | -0.0355 ± 0.0064 | 0.017 ± 0.035 | -0.0105 ± 0.021
4 | lMphg:M-CSF | 0.019 ± 0.016 | 0.032 ± 0.011 | 0.009 ± 0.038 | 0.0035 ± 0.013 | -0.0445 ± 0.0092 | -0.029 ± 0.021 | 0.008 ± 0.058 | -0.009 ± 0.017 | -0.002 ± 0.04 | 0.0025 ± 0.035 | -0.0015 ± 0.042 | 0.014 ± 0.0057 | 0.01 ± 0.014 | 0.0185 ± 0.046 | -0.014 ± 0.0099 | 0.002 ± 0.0085 | -0.003 ± 0.014 | -0.0115 ± 0.016 | -0.0055 ± 0.0021 | -0.002 ± 0.021 | -0.0135 ± 0.0092 | -0.018 ± 0.025 | -0.0175 ± 0.015 | 0.006 ± 0.018 | 0.014 ± 0.035 | -0.0165 ± 0.019 | -0.0115 ± 0.005 | -0.015 ± 0.0028 | -0.0175 ± 0.0064 | 0.012 ± 0.028
5 | lMphg:SRB | -0.01 ± 0.0057 | -0.0035 ± 0.005 | 0.0095 ± 0.019 | -0.0185 ± 0.013 | -0.013 | -0.052 ± 0.0085 | -0.014 ± 0.0028 | -0.005 ± 0.013 | -0.0015 ± 0.0078 | 0.0015 ± 0.0064 | -0.001 ± 0.0057 | -0.0025 ± 0.0035 | -0.003 ± 0.0014 | -0.0075 ± 0.033 | 0.002 ± 0.0028 | -0.003 ± 0.0057 | -0.012 ± 0.016 | -0.006 ± 0.011 | -0.004 ± 0.0014 | 0.005 | -0.008 ± 0.0057 | -0.007 ± 0.0042 | -0.0005 ± 0.018 | 0.0055 ± 0.012 | 0.008 ± 0.0099 | -0.007 ± 0.011 | -0.0035 ± 0.019 | -0.005 ± 0.0057 | 0.0025 ± 0.0021 | 0.0055 ± 0.005
6 | lMphg:SRB-Mphg | -0.019 ± 0.092 | -0.0035 ± 0.0021 | 0.012 ± 0.028 | -0.0045 ± 0.012 | -0.0005 ± 0.0064 | -0.027 ± 0.016 | 0.056 ± 0.055 | 0.064 ± 0.017 | 0.001 ± 0.023 | 0.012 ± 0.016 | 0.0005 ± 0.00071 | 0.0005 ± 0.03 | -0.003 | 0.021 ± 0.011 | 0.018 ± 0.0014 | 0.007 ± 0.016 | 0.014 ± 0.018 | 0.0445 ± 0.026 | 0.008 | 0.012 ± 0.02 | 0.0005 ± 0.013 | -0.0045 ± 0.015 | 0.013 ± 0.027 | 0.005 ± 0.024 | 0.0405 ± 0.0035 | 0.001 ± 0.071 | -0.009 ± 0.075 | -0.015 ± 0.054 | 0 ± 0.027 | 0.019 ± 0.0057
7 | lMphg:sIL-10 | 0.042 ± 0.054 | 0.045 ± 0.064 | -0.0875 ± 0.037 | -0.0535 ± 0.1 | -0.068 ± 0.021 | -0.169 ± 0.025 | 0.0515 ± 0.043 | -0.0095 ± 0.036 | -0.028 ± 0.037 | 0.0235 ± 0.061 | -0.029 ± 0.0071 | 0.0495 ± 0.013 | 0.002 ± 0.027 | 0.004 ± 0.045 | 0.02 ± 0.061 | -0.046 ± 0.031 | -0.0455 ± 0.026 | 0.0155 ± 0.053 | -0.0125 ± 0.049 | 0.04 ± 0.033 | -0.013 ± 0.023 | -0.0715 ± 0.005 | -0.021 ± 0.047 | 0.044 ± 0.0085 | 0.0105 ± 0.039 | 0 ± 0.028 | -0.0495 ± 0.096 | -0.0605 ± 0.054 | -0.019 ± 0.0014 | 0.0225 ± 0.0035
